Experimental data published in PubChem BioAssay AID1508600 (Functional Genomics Laboratory (NCATS/FGL), 2020).
The campaign covered roughly 53,000 sequences. About 3,700 (7%) were called active.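 The calls were made as follows: active = gene knockdowns whose robust z-score for IL-1 alpha signal is at least 2 or at most -2, so actives lie on both sides; inactive = the rest.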 Some of the results follow.

Assay: Components of the Cytosolic LPS Sensing Pathway: Gene Identification via Genome-wide siRNA Screen;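 also: robust z of the log signal after scaling to non-targeting control siRNA wells of the plate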
Conditions: RAW264.7 macrophages, IL-1a HTRF, actives lie on both sides, screened at 100 nM (by protocol), cells primed 5 h with Pam3CSK4 first
In short: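 Cells (RAW264.7, 1×10^4 per well) were transfected with siRNA at 100 nM and cultured 48h at 37 degrees C. Pam3CSK4 was added for 5 hours; LipidA transfection followed for 24 hour. IL-1a was then measured by HTRF.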

| Sequence | z-score |
| --- | --- |
| CCCAAUAAAGCUUGUGUAATT against Nudt14 | inactive: 0.321 |
| GGAGAAAGUCCUUUUUGUUTT against Sh3gl2 | inactive: 0.849 |
| GGAAGUAUUAAUGUACAACTT against Msmo1 | inactive: 0.0519 |
| GGCACUUCAAAAAAAGAAUTT against Irgm2 | inactive: -1 |
| GGGCAUUUACGUCACACGATT against Tax1bp3 | inactive: -1.13 |
| GGCAGUGUUUUUAUUUGAUTT against Pold3 | inactive: -0.839 |
| GGAUCAACUGGUGACACAGTT against Preb | inactive: -0.00996 |
| CCAUUUUUGAGUAUGUUGGTT against Abraxas2 | inactive: 0.319 |
| CCAACAGAACGACUGUGGGTT against Ldlrad4 | inactive: 0.228 |
| GGAACCACAUUAUGGAUCUTT against Rbx1 | inactive: -0.441 |
| GGUCAAUCAAUCGUACGAATT against Taar1 | inactive: -0.188 |
| CGAGCUCAGGCCUAUUAAATT against Cdh12 | active: 3.39 |
| GGAAUAUUCUGGUCCAGAGTT against Cdh24 | inactive: 0.122 |
| GCAAUUCCUCUUUUAGUCCTT against Spag6l | inactive: -1.38 |
| GGUCAAGAGGAAGGAGCCATT against Setd1b | inactive: -0.0466 |
| GGCUUUAUAAUGUUCUGUUTT against Calcoco1 | inactive: 0.0799 |
| CGGACUGGACAUUGAUGAATT against Slc13a1 | inactive: -0.395 |
| GGUAGAAAAAGUAAUUUCCTT against Tmprss2 | inactive: 0.407 |
| GGUUUUAUAUUGCUUCUCCTT against 9230109A22Rik | inactive: 0.615 |
| CCCAAUUAGAAUAAAGCUUTT against Asb11 | inactive: -1.81 |
| GGUGGAGAGCUACAAUAUUTT against Pcdhga11 | inactive: 1.04 |
| GGUCAUCGAGUUGCUUUUUTT against Gga3 | inactive: 0.946 |

| Sequence | z-score |
| --- | --- |
| GGUGGACUUCGAGAACAUATT against Cyp2d26 | inactive: 0.75 |
| GGAAAGCGAUACCUAAACATT against Atp13a4 | inactive: 0.753 |
| CGUCAAUGAAUUCGACUCUTT against Pnlip | inactive: 0.348 |
| GGGAACAGGUUACAUUCAUTT against Gimap8 | inactive: 0.461 |
| CCAGAUCUACGAAAGUUUATT against Snx19 | inactive: -0.282 |
| CCUUUUGAUGCAUCCCGUCTT against Bpifb3 | inactive: 0.709 |
| GGGAUUUCUCGAAUGAAUGTT against Pgm2 | inactive: -0.767 |
| GGUCAGUAUCAGAAUGAUCTT against Rft1 | inactive: -0.831 |
| GCCUGAUUGUGACGUGGUUTT against Slc19a2 | inactive: 0.283 |
| GGGUUUUGAAAGAGGAAAATT against Osbpl8 | inactive: 1.52 |
| GGAAAUGGGAUUUAAGGAATT against Fan1 | inactive: -0.0528 |
| GGACGAGAAUCAAGAGCAGTT against Cdkn1c | inactive: -0.0249 |
| CCGUGGAGACAGAUCUAGATT against Hif3a | inactive: 0.486 |
| GUAUGAUGCACUCCAGUUGTT against Hdac8 | inactive: -0.244 |
| UAGGAUUUAGCAAGCCACCTT against Zfp708 | inactive: -0.151 |
| UUUCCGUUUUAGGAUGUGATT against Olfr319 | inactive: 1 |
| GGUGCGCUGUGUUGUUCAUTT against Bmper | inactive: 1.81 |
| GGAAGAUGUUACUUCAAAGTT against Anln | inactive: 0.475 |
| GGACAUGACAUCCAAAGACTT against Prmt1 | inactive: -0.649 |
| GGGCCUAAAGGACUUGGCUTT against Dlg4 | inactive: -0.548 |
| GCGAAACCGUGUUUCUCUATT against Skil | inactive: -1.25 |
| GCCAAGAGGUUUUAUGGUUTT against Trim38 | inactive: -1.03 |

Quoted at random: four entries already listed

| Sequence | z-score |
| --- | --- |
| CCAUUUUUGAGUAUGUUGGTT against Abraxas2 | inactive: 0.319 |
| GGCAGUGUUUUUAUUUGAUTT against Pold3 | inactive: -0.839 |
| CGAGCUCAGGCCUAUUAAATT against Cdh12 | active: 3.39 |
| GGAACCACAUUAUGGAUCUTT against Rbx1 | inactive: -0.441 |

(next part)

| Sequence | z-score |
| --- | --- |
| GCACAGCCUGGUCAAAAACTT against S100a16 | inactive: -1.59 |
| CCCUAUUGAUUCAACUUGGTT against Samt4 | inactive: 0.253 |
| CCCAGCUCUACUUUUUCUCTT against Olfr971 | inactive: -1.87 |
| GCCUUUGUGUUACAAUAUGTT against Fermt2 | inactive: 0.487 |
| GCUCCAAUAACAUGAGUAGTT against Tmem151a | inactive: 0.208 |
| GGAACAAAGGAUCUGUCUGTT against Sec23a | inactive: 0.0636 |
| CGCUCCUUUUUGUUAAUGCTT against Psmf1 | inactive: 0.594 |
| CCGCUUCAAUGUCUACUGCTT against Bcan | inactive: 0.363 |
| GCACCUAGACAAUAACUUATT against Selenof | inactive: -0.782 |
| GCGAUGUUUGGAUGACUUATT against Efl1 | inactive: 0.423 |
| CCUGCACUACUGGAUUGGATT against Vill | inactive: 0.265 |
| CCACUCUAAAGAGUUGUACTT against Surf1 | inactive: 1.3 |
| GGAAAUGAUCACAGCUGGGTT against Ccl20 | inactive: 0.992 |
| GGGUUAGGCCAGUUCUGAUTT against Reg3d | active: -2.08 |
| GCGCAAGUUGUGCAGAACUTT against Asb5 | inactive: 0.201 |
| GCCAAGAUUGUCAAAGAUCTT against Pgk1 | inactive: -1.27 |
| GGUAGAUUCUAAUUGUUCATT against Ciao2a | inactive: 0.992 |
| CCGGCUAGAAACCGUGAAUTT against Tsku | inactive: 0.696 |
| GCGAUACCAGGGACUACAUTT against Zfp692 | inactive: 1.75 |
| GGAGAGUUACGACGUAUUCTT against Ckb | inactive: 0.23 |
| GCGUGUCUUGCUCUUUUGATT against Usp22 | inactive: -1.21 |
| GAGAUGGACAAUCUCAUGGTT against Pcp2 | inactive: -1.03 |

An excerpt of these results, bar-delimited.
Sequence | z-score
GCACCUAGACAAUAACUUATT against Selenof | inactive: -0.782
GCGAUGUUUGGAUGACUUATT against Efl1 | inactive: 0.423
CCUGCACUACUGGAUUGGATT against Vill | inactive: 0.265
CCACUCUAAAGAGUUGUACTT against Surf1 | inactive: 1.3
GGAAAUGAUCACAGCUGGGTT against Ccl20 | inactive: 0.992
GGGUUAGGCCAGUUCUGAUTT against Reg3d | active: -2.08

Next entries follow.

| Sequence | z-score |
| --- | --- |
| GGACCUUCAGAAGCUGAUCTT against Cmss1 | inactive: -0.308 |
| GGUCAAAAAAUAUUGAUGCTT against Itgav | inactive: -1.05 |
| GCUAUGUUGUUAAAACGAATT against Amotl2 | inactive: 0.258 |
| GGCACGUACCAUUGAGAUATT against Ina | inactive: 0.549 |
| GGCAUCCAAUAAACAUAUUTT against Selplg | inactive: -0.157 |
| GGCAAAAGAAUCGUUCUCATT against Ppat | inactive: -0.848 |
| CCUAUCUUAUGAUGACAUATT against Erich3 | inactive: -0.0224 |
| AGAGACUAGGGAUGCAUCUTT against Olfr462 | inactive: -0.306 |
| GCAUCUUGUUUUAAUGACUTT against Car5b | inactive: -0.0409 |
| GGGACACCGUCAAUCUUUATT against Frzb | inactive: -0.269 |
| GCCUCAAUUGUUUACUUAUTT against Edn2 | inactive: 0.404 |
| CCGCCCUGAUUAUUGCCAUTT against Edar | inactive: -0.179 |
| GCCAGUUGACCACUAUUGATT against Tox4 | inactive: -0.764 |
| GGAAGAGACCAAAGUAUAATT against Map2k7 | inactive: 0.318 |
| CGUACAUCCUAAAAGUGGGTT against Pcdhac1 | inactive: -0.613 |
| GGAUCUCUCUUUCCUCCUCTT against Gli1 | inactive: 0.0792 |
| GGAUACUCGGGAUCUAGUATT against Anxa11 | inactive: -1.44 |
| CCGGUAUUCAAUAGCUCUCTT against Cybb | inactive: -0.909 |
| GCGACACCCUGAUCAUGAATT against Ascl3 | inactive: -1.37 |
| GCCCACCGACUUUAUUAACTT against Tfap2d | inactive: 0.541 |
| CGAACUGAAGGUUUUCAAUTT against Knstrn | inactive: 0.422 |
| CGGGAAUCCUAUCUAUCAATT against Smox | inactive: 0.762 |

| Sequence | z-score |
| --- | --- |
| GCUACGUUAAGUGAAGAUATT against Acad9 | inactive: 0.407 |
| GCAACUUGGCUACAAUUACTT against Dct | inactive: 0.987 |
| GCUUGAUGACUACCACUGATT against Rrp36 | inactive: 0.496 |
| GCCGAACUAUUGGCUCAAGTT against Gucy2e | inactive: -0.692 |
| GGACCUUUUGUCUAUAAUGTT against Arl4c | inactive: 0.759 |
| GGUUCAAAUACAUUGCCAUTT against Rabif | inactive: -0.778 |
| GGGAGGAUGAACAUCAAAGTT against Afg1l | inactive: 0.786 |
| GGUUGUCUGUCUUUUCCGGTT against Mta2 | inactive: 0.868 |
| GGGCAACAUUGAAACAAAUTT against Idh3g | inactive: 0.939 |
| GGAAUUGAGAAAUCUAAUGTT against Rev1 | inactive: 0.323 |
| CGCAUUAUGCUUGAAAUGUTT against Nefh | inactive: -0.442 |
| GCUAAGUCCGACUAAGCAUTT against Hmgn1 | inactive: -0.988 |
| GGAGGAGAGAACAAAAUGUTT against Itgb1bp2 | inactive: 0.839 |
| GGAAGCUUUUUUCUGAGCUTT against Fam3a | inactive: -1.27 |
| GCCAAAGUGCAGAAUUGGUTT against Rhox1 | inactive: -1.64 |
| GCAGAUCAAAUUUAGCUGATT against Wwc2 | inactive: 0.266 |
| GGCAUAUGCACUUUAUUUCTT against Cep97 | inactive: -0.339 |
| GGCCUUCCAUACUACAACUTT against Zfp595 | active: 2.2 |
| CCCUAAUAUCACAUGGUGGTT against Cd79a | inactive: 0.598 |
